PubChem BioAssay AID493246 – Drosophila RNAi Screening Center, 2011

Aim: 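Genome-wide search for dsRNAs that reduce cell number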 (primary screen)
System: Drosophila Kc and S2R+ cells
Reagent: long dsRNA against Drosophila genes
Measurement: 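Raw, unnormalised count of remaining cells in each well; per-plate z-scores of cell number underlie the calls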
Direction: Kc cell number and S2R+ cell number: higher = more cells remaining
Hit rule: 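Active when the per-plate z-score of cell number is 3 or more in the direction of fewer cells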
The deposit covers about 21,000 reagents; shown is a random part of those with a known target gene and a result. Over the whole deposit, 429 (2%) got an active call. 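Values are raw and not normalised between plates; calls rest on per-plate z-scores that were not deposited.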 Unmarked entries are inactive. Reagents against one gene are numbered here. The record does not give: the amount of reagent, the time to read-out.

gene | reagent | Kc cell number, rep 1 | Kc cell number, rep 2 | S2R+ cell number, rep 1 | S2R+ cell number, rep 2
CG9568 | 1 | 1.48e6 | 1.45e6 | 1.03e6 | 1.12e6
CG32590 | 1 | 1.59e6 | 1.64e6 | 1.04e6 | 1.27e6
CG2931 | 1 | 1.50e6 | 1.78e6 | 1.15e6 | 1.26e6
slam (slow as molasses) | 1 | 1.56e6 | 1.74e6 | 1.24e6 | 1.43e6
CG34241 | 1 | 1.45e6 | 1.53e6 | 1.16e6 | 1.30e6
SMC1 (Structural maintenance of chromosomes 1) | 1 | 1.47e6 | 1.46e6 | 9.34e5 | 1.05e6
nolo (no long nerve cord) | 1 | 1.42e6 | 1.52e6 | 1.07e6 | 1.05e6
nolo (no long nerve cord) | 2 | 1.50e6 | 1.62e6 | 1.36e6 | 2.87e5
nolo (no long nerve cord) | 3 | 1.45e6 | 1.57e6 | 1.36e6 | 3.16e5
CG15594 | 1 | 1.53e6 | 1.72e6 | 1.28e6 | 1.41e6
Adk2 (Adenosine kinase 2) | 1 | 1.33e6 | 1.31e6 | 1.22e6 | 9.39e5
CG31013 | 1 | 1.41e6 | 1.41e6 | 9.97e5 | 1.08e6
CG15629 | 1 | 1.51e6 | 1.41e6 | 1.12e6 | 1.22e6
ppk31 (pickpocket 31) | 1 | 1.14e6 | 1.41e6 | 1.00e6 | 1.04e6
Pi4KIIIalpha (Phosphatidylinositol 4-kinase III alpha) | 1 | 1.53e6 | 1.46e6 | 9.84e5 | 1.04e6
pdm3 (pou domain motif 3) | 1 | 1.64e6 | 1.71e6 | 1.38e6 | 1.49e6
pdm3 (pou domain motif 3) | 2 | 1.52e6 | 1.64e6 | 1.25e6 | 1.37e6
CG4020 | 1 | 1.57e6 | 1.54e6 | 1.07e6 | 1.22e6
CG6761 | 1 | 1.29e6 | 1.36e6 | 1.40e6 | 1.31e6
inaF-C | 1 | 1.27e6 | 1.51e6 | 1.09e6 | 1.08e6
CG7886 | 1 | 1.40e6 | 1.36e6 | 1.12e6 | 1.20e6
CG9806 | 1 | 1.61e6 | 1.51e6 | 1.03e6 | 1.14e6
CG8507 | 1 | 1.48e6 | 1.60e6 | 1.36e6 | 1.46e6
CG4073 | 1 | 1.38e6 | 1.45e6 | 1.31e6 | 1.41e6
CG13982 | 1 | 1.52e6 | 1.27e6 | 1.07e6 | 1.20e6
RhoGAP5A (Rho GTPase activating protein at 5A) | 1 | 6.30e5 | – | 8.50e5 | –
CG14621 | 1 | 1.44e6 | 1.47e6 | 1.00e6 | 1.13e6
CG16798 | 1 | 1.60e6 | 1.68e6 | 1.21e6 | 3.09e5
beta'COP (Coat Protein (coatomer) beta') | 1 | 1.20e6 | 1.40e6 | 8.32e5 | 9.12e5
CR14798 (pseudo) | 1 | 1.76e6 | 1.79e6 | 1.08e6 | 1.24e6
CG12507 | 1 | 1.64e6 | 1.65e6 | 1.17e6 | 1.27e6
eIF4E4 (eukaryotic translation initiation factor 4E4) | 1 | 1.83e6 | 1.74e6 | 1.15e6 | 1.20e6
smp-30 (Senescence marker protein-30) | 1 | 1.39e6 | 1.51e6 | 1.12e6 | 1.24e6
CG17207 | 1 | 1.37e6 | 1.36e6 | 1.26e6 | 1.32e6
Yeti | 1 | 1.50e6 | 1.52e6 | 9.74e5 | 1.04e6
CG10338 | 1 | 1.58e6 | 1.63e6 | 1.35e6 | 2.73e5
Gr5a (Gustatory receptor 5a) | 1 | 1.57e6 | 1.53e6 | 9.63e5 | 1.10e6
gwl (greatwall) | 1 | 1.61e6 | 1.71e6 | 1.14e6 | 1.23e6
Cyp313a5 (Cytochrome P450 313a5) | 1 | 1.42e6 | 1.49e6 | 1.20e6 | 1.32e6
CG13838 | 1 | 1.44e6 | 1.39e6 | 9.81e5 | 1.10e6

3 of these entries, reformatted.
| gene | reagent | Kc cell number, rep 1 | Kc cell number, rep 2 | S2R+ cell number, rep 1 | S2R+ cell number, rep 2 |
| --- | --- | --- | --- | --- | --- |
| nolo (no long nerve cord) | 3 | 1.45e6 | 1.57e6 | 1.36e6 | 3.16e5 |
| CG15594 | 1 | 1.53e6 | 1.72e6 | 1.28e6 | 1.41e6 |
| Adk2 (Adenosine kinase 2) | 1 | 1.33e6 | 1.31e6 | 1.22e6 | 9.39e5 |
